Source: the supplement of paper PMC3682954
Values joined by “and” are separate entries in the source; they are usually repeats but may differ in a detail not shown here. Equal entries are not always repeated. Structures can show the parent of a compound that is named as a salt. ± gives the standard deviation of the averaged measurements. Some of the results follow. Repeats are few or missing, and single values can be far off.

System: RAW 264.7
Experiment: cell viability (MTT) relative to vehicle control; higher = more viable cells
Settings: stimulus: HMGB1 5 ug/ml, 18 h
[1] = compound concentration: 1 ug/ml

`O=C(NCC(O)CO)c1c(I)c(C(=O)NCC(O)CO)c(I)c(N(CCO)C(=O)CO)c1I` (centres undefined) [Ioversol] was tested, and the cell viability (compound concentration: 3 uM) was 111%.

Compound `CO/N=C(\C(=O)N[C@@H]1C(=O)N2C(C(=O)O)=C(COC(N)=O)CS[C@H]12)c1ccco1` [Cefuroxime sodium salt] has a cell viability (compound concentration: 3 uM) of 104%.

Compound `CO/N=C(\C(=O)N[C@@H]1C(=O)N2C(C(=O)O)=C(COC(N)=O)CS[C@H]12)c1ccco1` has a cell viability (compound concentration: 3 uM) of 105%.

In the case of `N[C@@H](CS(=O)(=O)O)C(=O)O` [L-Cysteic acid monohydrate], the cell viability [1] is reported as 102%.

For `Nc1nc2[nH]c(=O)cnc2c(=O)[nH]1` [Isoxanthopterin], the cell viability (compound concentration: 3 uM) was 95.2%.

`CC(C)(C)[C@]1(O)CCN2C[C@H]3c4ccccc4CCc4cccc(c43)[C@@H]2C1` [Butaclamol (+)] showed a cell viability (compound concentration: 3 uM) of 119%.

`CC(C)(C)[C@]1(O)CCN2C[C@H]3c4ccccc4CCc4cccc(c43)[C@@H]2C1` (racemic) [(±)-Butaclamol hydrochloride] was tested, and the cell viability (compound concentration: 3 uM) was 96.2%.

Compound `CC(C)(C)[C@]1(O)CCN2C[C@H]3c4ccccc4CCc4cccc(c43)[C@@H]2C1` [(+)-Butaclamol hydrochloride] has a cell viability (compound concentration: 3 uM) of 97.1%.

For `CC1Cc2ccccc2N1NC(=O)c1ccc(Cl)c(S(N)(=O)=O)c1` (centres undefined) [Indapamide], the cell viability (compound concentration: 3 uM) was 101 ± 13%.

`CC1Cc2ccccc2N1NC(=O)c1ccc(Cl)c(S(N)(=O)=O)c1` (centres undefined) showed a cell viability (compound concentration: 3 uM) of 101%.

With `CCC(=O)c1c(O)cc(O)cc1O` the cell viability (compound concentration: 3 uM) was 104%.

`Nc1ncnc2c1nc(Sc1ccc(Cl)cc1)n2C1OC2COP(=O)(O)O[C@@H]2[C@@H]1O` (some centres undefined) [8-(4-Chlorophenylthio)-cAMP sodium] was tested, and the cell viability (compound concentration: 3 uM) was 101%.

`COc1ccc2cc(C(C)C(=O)O)ccc2c1` (centres undefined) showed a cell viability (compound concentration: 3 uM) of 106%.

Work on `CC(C)C[C@@H]1NC(=O)[C@H](CCCN)NC(=O)[C@H](C(C)C)NC(=O)[C@H](Cc2ccc(O)cc2)N[C@@H](CCC(=O)O)C(=O)N[C@@H](CC(N)=O)C(=O)[C@@H](Cc2ccccc2)NC(=O)[C@H](Cc2ccccc2)NC(=O)[C@@H]2CCCN2C(=O)[C@@H](Cc2ccccc2)NC1=O` yielded a cell viability (compound concentration: 3 uM) of 48.8%.

In the case of `O=c1cc(-c2ccc(O)cc2)oc2cccc(O)c12` [4',5-Dihydroxyflavone], the cell viability [1] is reported as 88.6%.

`CC(=O)Nc1ncc([N+](=O)[O-])s1` showed a cell viability (compound concentration: 3 uM) of 105%.

Compound `O=C(O)C1=CCCNC1` [Guvacine hydrochloride] has a cell viability (compound concentration: 3 uM) of 107%.

`Cc1cc(CC(=O)O)n(C)c1C(=O)c1ccc(Cl)cc1` was tested, and the cell viability (compound concentration: 3 uM) was 114%.

Compound `Cc1cc(CC(=O)O)n(C)c1C(=O)c1ccc(Cl)cc1` [Zomepirac sodium salt] has a cell viability (compound concentration: 3 uM) of 111%.

Compound `NCCNC(=O)c1ncsc1-c1cccc(F)c1` [Ro 41-1049 hydrochloride] has a cell viability (compound concentration: 3 uM) of 135%.

For `CCCCCCCCCCCCCCCC(=O)O[C@@H]1[C@@H](O)[C@@H](O)[C@@H]([C@H](NC(=O)[C@@H]2C[C@@H](CCC)CN2C)[C@H](C)Cl)O[C@@H]1SC`, the cell viability (compound concentration: 3 uM) was 104%.

With `CCCCCCCCCCCCCCCC(=O)O[C@@H]1[C@@H](O)[C@@H](O)[C@@H]([C@H](NC(=O)[C@@H]2C[C@@H](CCC)CN2C)[C@H](C)Cl)O[C@@H]1SC` [Clindamycin palmitate] the cell viability (compound concentration: 3 uM) was 109%.

In the case of `COC(=O)CC[C@@H](C)[C@H]1CC[C@H]2[C@@H]3[C@H](O)C[C@@H]4C[C@H](O)CC[C@]4(C)[C@H]3C[C@H](O)[C@]12C` [Methyl cholate], the cell viability [1] is reported as 97.2%.

Compound `CC[C@H]1OC(=O)[C@H](C)[C@@H](O[C@H]2C[C@@](C)(OC)[C@@H](O)[C@H](C)O2)[C@H](C)[C@@H](O[C@@H]2O[C@H](C)C[C@H](N(C)C)[C@H]2O)[C@](C)(O)C[C@@H](C)/C(=N\OCOCCOC)[C@H](C)[C@@H](O)[C@]1(C)O` has a cell viability (compound concentration: 3 uM) of 102%.

Work on `CC[C@H]1OC(=O)[C@H](C)[C@@H](O[C@H]2C[C@@](C)(OC)[C@@H](O)[C@H](C)O2)[C@H](C)[C@@H](O[C@@H]2O[C@H](C)C[C@H](N(C)C)[C@H]2O)[C@](C)(O)C[C@@H](C)/C(=N\OCOCCOC)[C@H](C)[C@@H](O)[C@]1(C)O` [Roxithromycin] yielded a cell viability (compound concentration: 3 uM) of 96.1 ± 17%.

In the case of `CN1CCc2cc3c(cc2C(=O)Cc2ccc4c(c2C1)OCO4)OCO3` [Protopine], the cell viability [1] is reported as 94.8%.

Work on `CCc1cccc(N(C)C(=N)Nc2cccc3ccccc23)c1` yielded a cell viability (compound concentration: 3 uM) of 93.1%.

In the case of `Nc1nc2c(c(=O)[nH]1)N=C(CNc1ccc(C(=O)N[C@@H](CCC(=O)O)C(=O)O)cc1)CN2` [Dihydrofolic acid, 90%], the cell viability [1] is reported as 87.5%.

`Nc1nc(F)nc2c1ncn2[C@@H]1O[C@H](CO)[C@@H](O)[C@@H]1O` [Fludarabine] was tested, and the cell viability (compound concentration: 3 uM) was 108%.

For `C=C1CC[C@H](O)C/C1=C/C=C1\CCC[C@]2(C)[C@@H]([C@H](C)CCCC(C)(C)O)CC[C@@H]12` [Calcifediol], the cell viability (compound concentration: 3 uM) was 111%.

`Nc1nc(=O)c2nc(CNc3ccc(C(=O)N[C@@H](CCC(=O)O)C(=O)O)cc3)cnc2[nH]1` gave a cell viability (compound concentration: 3 uM) of 100%.

Work on `Nc1nc(=O)c2nc(CNc3ccc(C(=O)N[C@@H](CCC(=O)O)C(=O)O)cc3)cnc2[nH]1` [Folic acid] yielded a cell viability (compound concentration: 3 uM) of 114%.

`CC(=O)N[C@@H](CC(C)C)C(=O)O` showed a cell viability (compound concentration: 3 uM) of 111%.

`CC(=O)N[C@@H](CC(C)C)C(=O)O` [N-Acetyl-L-leucine] was tested, and the cell viability (compound concentration: 3 uM) was 101%.

`CC(C)C[C@H](NC(=O)[C@@H](Cc1c[nH]c2ccccc12)NC(=O)[C@H](Cc1ccc(O)cc1)NC(=O)[C@H](CO)NC(=O)[C@H](Cc1c[nH]c2ccccc12)NC(=O)[C@H](Cc1c[nH]cn1)NC(=O)[C@@H]1CCC(=O)N1)C(=O)N[C@@H](CCCNC(=N)N)C(=O)N1CCC[C@H]1C(=O)NCC(N)=O` [Triptorelin] gave a cell viability (compound concentration: 3 uM) of 113%.

Work on `O=C([O-])[C@H]1/C(=C/CO)O[C@@H]2CC(=O)N21.[Li+]` yielded a cell viability (compound concentration: 3 uM) of 101%.

`Nc1nc(Cl)nc2c1ncn2[C@@H]1O[C@H](CO)[C@@H](O)[C@@H]1F` [Clofarabine] was tested, and the cell viability (compound concentration: 3 uM) was 73.8%.

Compound `Cc1ccc2oc(=O)c(-c3ccc(O)cc3)c(C)c2c1` [4,6-Dimethyl-3(4'-hydroxyphenyl)coumarin] has a cell viability [1] of 102%.

`CC(N)=O` [Acetamide] showed a cell viability (compound concentration: 3 uM) of 106%.

`Nc1nc(=S)c2ncn([C@@H]3O[C@H](CO)[C@@H](O)[C@H]3O)c2[nH]1` [Thioguanosine] was tested, and the cell viability (compound concentration: 3 uM) was 78.6%.

In the case of `CC(N)(C(=O)O)c1ccc(C(=O)O)cc1` (racemic) [(±)-alpha-Methyl-4-carboxyphenylglycine], the cell viability (compound concentration: 3 uM) is reported as 109%.

`CC(C)NCC(O)COc1ccc(COCCOC(C)C)cc1` (centres undefined) [Bisoprolol fumarate] was tested, and the cell viability (compound concentration: 3 uM) was 110%.

For `CC(C)NCC(O)COc1ccc(COCCOC(C)C)cc1` (centres undefined) [Bisoprolol hemifumarate salt], the cell viability (compound concentration: 3 uM) was 108%.

`CC(C)NCC(O)COc1ccc(COCCOC(C)C)cc1` (centres undefined) showed a cell viability (compound concentration: 3 uM) of 106 ± 13%.

Compound `CC(C)=CCCC(C)CCO` (centres undefined) [Citronellol] has a cell viability [1] of 99.5%.

For `O=C1CN2Cc3c(ccc(Cl)c3Cl)N=C2N1`, the cell viability (compound concentration: 3 uM) was 90.3% and 110%.

`O=C1CN2Cc3c(ccc(Cl)c3Cl)N=C2N1` [Anagrelide] gave a cell viability (compound concentration: 3 uM) of 102%.

For `CO[C@H]1/C=C/O[C@@]2(C)Oc3c(C)c(O)c4c(c3C2=O)C2=NC3(CCN(CC(C)C)CC3)NC2=C(NC(=O)/C(C)=C\C=C\[C@H](C)[C@H](O)[C@@H](C)[C@@H](O)[C@@H](C)[C@H](OC(C)=O)[C@@H]1C)C4=O` [Rifabutin], the cell viability (compound concentration: 3 uM) was 107%.

With `CO[C@H]1/C=C/O[C@@]2(C)Oc3c(C)c(O)c4c(c3C2=O)C2=NC3(CCN(CC(C)C)CC3)NC2=C(NC(=O)/C(C)=C\C=C\[C@H](C)[C@H](O)[C@@H](C)[C@@H](O)[C@@H](C)[C@H](OC(C)=O)[C@@H]1C)C4=O` the cell viability (compound concentration: 3 uM) was 102%.

`O=c1cc(-c2ccc(O)cc2)oc2cc(O)cc(O)c12` [Apigenin] showed a cell viability [1] of 84.5% and a cell viability (compound concentration: 3 uM) of 103%.

`CC(=O)OCC(COC(C)=O)OC(C)=O` was tested, and the cell viability (compound concentration: 3 uM) was 112%.

For `O=C(Cn1ccnc1[N+](=O)[O-])NCCO` [Etanidazole], the cell viability (compound concentration: 3 uM) was 108%.

`O=C(Cn1ccnc1[N+](=O)[O-])NCCO` was tested, and the cell viability (compound concentration: 3 uM) was 97.5 ± 0.11%.

For `C[C@@H](N)[C@H]1CC[C@H](C(=O)Nc2ccncc2)CC1`, the cell viability (compound concentration: 3 uM) was 113%.

`NC[C@H]1O[C@@H](n2cnc3c(N)ncnc32)[C@H](O)[C@@H]1O` [5'-Amino-5'-deoxyadenosine p-toluenesulfonate salt] gave a cell viability (compound concentration: 3 uM) of 115%.

`Cn1c(=O)[nH]c2c([nH]c(=O)n2C)c1=O` [1,9-dimethyluric acid] was tested, and the cell viability [1] was 96.9%.

In the case of `COc1c(O[C@@H]2O[C@H](CO)[C@@H](O)[C@H](O)[C@H]2O)cc2c(c1OC)-c1ccc(SC)c(=O)cc1[C@@H](NC(C)=O)CC2` [Thiocolchicoside], the cell viability (compound concentration: 3 uM) is reported as 82.7%.

`CN(C)CCN(Cc1cccs1)c1ccccn1` was tested, and the cell viability (compound concentration: 3 uM) was 116%.

`CN(C)CCN(Cc1cccs1)c1ccccn1` [Methapyrilene hydrochloride] gave a cell viability (compound concentration: 3 uM) of 101 ± 19%.

In the case of `COc1ccc(CCNc2nc(Cl)nc(N3CC4CC(C3)c3cccc(=O)n3C4)n2)cc1OC` (centres undefined), the cell viability [1] is reported as 108%.

`NC(=O)N1c2ccccc2C=Cc2ccccc21` gave a cell viability (compound concentration: 3 uM) of 107%.

For `NC(=O)N1c2ccccc2C=Cc2ccccc21` [Carbamazepine], the cell viability (compound concentration: 3 uM) was 99.8 ± 6%.

Work on `CCOC(=O)C1=C(C)NC(C)=C(C(=O)OCC)C1c1c(F)c(F)c(F)c(F)c1F` [Nemadipine-A] yielded a cell viability (compound concentration: 3 uM) of 111%.

With `Clc1ccc(C(Cn2ccnc2)OCc2c(Cl)cccc2Cl)c(Cl)c1` (centres undefined) [Isoconazole] the cell viability (compound concentration: 3 uM) was 98.5%.

With `NCCC[C@H](N)C(=O)O` the cell viability (compound concentration: 3 uM) was 112%.

For `CCSC(=N)N` [S-Ethylisothiourea hydrobromide], the cell viability (compound concentration: 3 uM) was 107%.

Work on `CCCCC[C@H](O)/C=C/[C@@H]1[C@@H](C/C=C\CCCC(=O)O)[C@@H](O)C[C@H]1O` [Dinoprost trometamol] yielded a cell viability (compound concentration: 3 uM) of 102%.

Work on `CCCCC[C@H](O)/C=C/[C@@H]1[C@@H](C/C=C\CCCC(=O)O)[C@@H](O)C[C@H]1O` [Dinoprost] yielded a cell viability (compound concentration: 3 uM) of 102%.

`CC(=O)c1ccc(S(=O)(=O)NC(=O)NC2CCCCC2)cc1` showed a cell viability (compound concentration: 3 uM) of 109%.

Work on `CC(=O)c1ccc(S(=O)(=O)NC(=O)NC2CCCCC2)cc1` [Acetohexamide] yielded a cell viability (compound concentration: 3 uM) of 99.9 ± 12%.

In the case of `CC(COc1ccccc1)N(CCCl)Cc1ccccc1` (centres undefined) [Phenoxybenzamine HCl], the cell viability (compound concentration: 3 uM) is reported as 105%.

`CC(COc1ccccc1)N(CCCl)Cc1ccccc1` (centres undefined) was tested, and the cell viability (compound concentration: 3 uM) was 108%.

`CC(COc1ccccc1)N(CCCl)Cc1ccccc1` (centres undefined) [Phenoxybenzamine hydrochloride] was tested, and the cell viability (compound concentration: 3 uM) was 94.5 ± 1.6%.
